Calls as published in the ROBIN set (doi:10.1002/anie.202211358).

Targets, with sequences 5′ to 3′:
T1: SAM-II riboswitch RNA pseudoknot, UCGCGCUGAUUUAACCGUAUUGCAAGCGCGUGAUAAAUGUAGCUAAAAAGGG. About 200 hits among about 21,000 compounds.
T2: PreQ1 riboswitch RNA pseudoknot, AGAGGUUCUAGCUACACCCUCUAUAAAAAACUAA. From B. subtilis. About 170 hits among about 24,000 compounds.
T3: TPP riboswitch RNA three-way junction, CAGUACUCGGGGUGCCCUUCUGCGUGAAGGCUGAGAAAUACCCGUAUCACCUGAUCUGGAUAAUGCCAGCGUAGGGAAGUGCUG. About 160 hits among about 24,000 compounds.

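Compounds were printed on reactive glass slides in duplicate spots, a dye-labelled oligonucleotide was laid over them, and the fluorescence left after washing was read. For the PreQ1, TPP and SAM-II riboswitches the laboratory earlier reported (doi:10.1038/s41467-019-09493-3) 1 µM RNA, 2 h, and a rule that included a mean Z-score above 3 (spot signal-to-noise against the whole library), a score well above that on a control array, and duplicate spots agreeing (coefficient of variation under 100). The data file gives only the calls; its cut-offs may differ, and compounds hitting several targets are kept. These are primary screening calls, not affinities; a compound without a hit may have attached poorly or may still bind in solution.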 A compound is marked hit if it was called a hit and none if it was screened but was not. The compounds are a random part of those screened. A dash means that no call is listed here.

SMILES	T1	T2	T3
CC(C)c1cc(C(=O)N2C[C@H]3CC[C@@H]2CN(c2ncccn2)C3)nc(N)n1	none	none	none
COc1ccc(N2C(=O)CC(n3c(CO)nc4ccccc43)C2=O)cc1 (centres undefined)	none	none	none
Cc1ccc(NCc2nnc(-c3ccccc3)o2)cc1C	-	none	none
Cc1nc2cc(C(=O)N(CCO)Cc3nccn3C)ccc2s1	none	none	none
Cl.OC(COCc1ccccc1)CN1CCc2ccccc2C1 (centres undefined)	none	none	none
Cc1cc(NCCCN2CCOCC2)n2nc(-c3ccc(Cl)cc3)c(C)c2n1	-	none	none
CC(=O)c1nn(-c2ccc(Cl)cc2)nc1Nc1cnc2ccccc2c1	-	none	none
CO[C@@H](C(=O)N1Cc2[nH]nc(NC(=O)c3ccc(N4CCN(C)CC4)cc3)c2C1)c1ccccc1	none	none	none
Cc1ccccc1OCCn1c(CO)nc2ccccc21	-	none	none
CCc1nc(C)c(C(=O)N2CC[C@](O)(CC)[C@H](O)C2)o1	none	none	none
CN1CCC(n2[nH]c(-c3ccccc3)c(Cc3ccccc3)c2=O)CC1	none	none	none
CCOc1nsc(OCC)n1	none	none	none
CC(=O)N1CCc2cc(C(O)CN3CCN(C4CCCCC4)CC3)ccc21 (centres undefined)	none	none	none
CCNc1nc(C)cc(N2CCN(S(=O)(=O)c3cc(C)c(C)cc3C)CC2)n1	-	none	none
Cc1ccc(NCC(=O)NN=Cc2ccccc2[N+](=O)[O-])c(C)c1	none	none	none
COc1cc2ccccc2cc1-c1nc(-c2nonc2N)no1	none	none	none
NCCc1nnc(SCc2ccccc2Cl)o1	none	none	none
Cc1nnc(-c2cccc(CCCCCCO)c2)o1	none	none	none
Cc1ccc(NC2c3ccccc3C(=O)N2c2cccnc2)c(C)c1 (centres undefined)	none	none	none
CCNc1nc(OC)nc(N2CCC(Cc3ccccc3)CC2)n1	none	none	none
CC(C)c1nccn1Cc1cc(C(=O)NC2CC(C)(C)NC(C)(C)C2)n[nH]1	none	none	none
O=[N+]([O-])c1cc(-c2cccnc2)n[nH]1	none	none	none
O=C(NCCS(=O)(=O)N1CCCC1)c1ccc(C2CCCNC2)cc1 (centres undefined)	none	none	none
O=C1CCCC1C(=O)Nc1ccc2ccccc2c1 (centres undefined)	none	none	none
CN1C[C@@H](N)C[C@H]1C(=O)NCCc1nc2ccccc2c(=O)[nH]1	none	none	none
Cc1ccc(C(=O)O)cc1CNC(=O)CN1CC[C@@H](N)[C@H](O)C1	none	none	none
C[C@@H]1CN(C[C@@H]2CN(C(=O)CCn3cncn3)C[C@@H]2CO)C[C@H](C)O1	none	none	none
CN(Cc1ccc2ccccc2n1)CC1(CO)CC1	none	none	none
Cn1c(=O)c2c(c3ccccc31)OC(N)=C(C#N)C21C(=O)N(Cc2ccccc2F)c2ccccc21 (centres undefined)	none	none	none
CN(C)c1ccc(C2C(C#N)=C(N)OC3=C2C(=O)CC(c2ccccc2)C3)cc1 (centres undefined)	none	none	none
O=C(NCCNc1cccnc1)c1cc2ccccc2oc1=O	none	none	none
Cc1ccnc(NC(c2ccccc2)c2ccc3cccnc3c2O)c1 (centres undefined)	none	none	none
OC(CN1CCN(c2ccc(F)cc2)CC1)c1c[nH]c2ccc(F)cc12 (centres undefined)	-	none	none
CCOC(=O)C1=C(N)Oc2[nH]nc(C)c2C12C(=O)N(C)c1ccccc12 (centres undefined)	none	none	none
Cc1cc(Nc2ccccc2F)n2nc(-c3cccnc3)nc2n1	-	none	none
N=c1n(CCO)c2ccccc2n1CCOc1ccc(Br)cc1	none	none	none
CN(Cc1cc2n(n1)CCCNC2)Cc1nccn1Cc1ccccc1	none	none	none
COc1ccc([C@H]2CN(C(=O)CCc3c(C)nn(C)c3C)C[C@@H]2N)cc1	none	none	none
CCC(C)NCc1ccc(C(=O)OC)o1 (centres undefined)	none	none	none
CC(C)c1ccc2[nH]c(-c3ccc(N)cc3)nc2c1	none	none	none
O=[N+]([O-])c1ccc(/C=C\c2ccncc2)cc1	none	none	none
Cn1c(=O)c2c(c3ccccc31)OC(N)=C(C#N)C2c1cccc(F)c1 (centres undefined)	none	none	none
Nc1nonc1C(=O)OCC(=O)N1CCCCC1	none	none	none
Cn1c(=O)c2c(nc3n(CCCCO)c(-c4ccccc4)cn23)n(C)c1=O	none	none	none
Cc1ccc(Cn2c(=O)c3c(nc(NCCO)n3C)n(C)c2=O)cc1	-	none	none
Cc1nc2ccccc2n1CCc1nc2c3ccccc3nc(NCC3CCCO3)n2n1 (centres undefined)	-	none	none
CCCC(=O)C1=C(NCCc2c(C)[nH]c3ccccc23)CC(C)(C)CC1=O	none	none	none
COc1ccc(C)cc1S(=O)(=O)N1CCN(c2cc(Nc3ccc(C)cc3)nc(C)n2)CC1	-	none	none
NC1CCCCN(C(=O)CCN2CCc3ccccc32)C1 (centres undefined)	none	none	none
Cc1cc(N2C[C@H]3CN(C(=O)CN(C)C)C[C@@]3(C(=O)O)C2)nc(N)n1	none	none	none
CNc1nc(N2CCCC2)nc(-n2cnc(SCCOc3ccccc3)n2)n1	-	none	none
N[C@H]1CN[C@H](C(=O)N[C@H]2CCc3ccccc32)C1	none	none	none
C=CCNc1oc(-c2ccc(S(=O)(=O)N3CCC(C)CC3)cc2)nc1C#N	-	none	none
OC(CN1CCCCC1)Cn1c2ccccc2c2ccccc21 (centres undefined)	none	none	none
Cc1cc(C(=O)N[C@H](CO)c2ccccc2)c2cccc(C)c2n1	none	none	none
CC1=C(C#N)c2nc(N)c(C#N)c(C)c2C1=Cc1ccco1	none	none	none
Cc1cc(C(=O)N2C[C@@H](N)C[C@H]2C(=O)NC(C)C)c2cnn(C(C)C)c2n1	none	none	none
Cc1cc(Nc2ccc(N3CCN(S(C)(=O)=O)CC3)cc2)n2nc(-c3ccccc3)nc2n1	none	none	none
Cc1ccc(-c2c(Nc3ccc(C(C)C)cc3)c(=O)c2=O)cc1C	-	none	none
CCNc1ncnc2c1oc1ccccc12	none	none	none
CCc1ccc(C2C(C#N)=C(N)Oc3c2c(=O)n(C)c2ccccc32)cc1 (centres undefined)	none	none	none
CS[C@H]1SC[C@@H]2C(=O)N(C)[C@H](C(C)C)C(=O)OC[C@H](NC(=O)c3cnc4ccccc4n3)C(=O)N[C@H](C)C(=O)N(C)[C@@H]1C(=O)N(C)[C@H](C(C)C)C(=O)OC[C@H](NC(=O)c1cnc3ccccc3n1)C(=O)N[C@H](C)C(=O)N2C	none	none	none
CNc1n[nH]c(N)c1C(=O)Nc1ccc(OC)cc1	none	none	none
C[C@H]1COC2=C1C(=O)C(=O)c1c2ccc2c1CCCC2(C)C	none	none	none
CC(=O)Nc1c(C)cc(OCC(=O)O)cc1C	none	none	none
CCc1nc(NCCN2CCOCC2)c(C#N)c2c1COC(C)(C)C2	none	none	none

Some entries from above, unchanged:

| SMILES | T1 | T2 | T3 |
|---|---|---|---|
| `CC(C)c1nccn1Cc1cc(C(=O)NC2CC(C)(C)NC(C)(C)C2)n[nH]1` | none | none | none |
| `CN1C[C@@H](N)C[C@H]1C(=O)NCCc1nc2ccccc2c(=O)[nH]1` | none | none | none |
| `Nc1nonc1C(=O)OCC(=O)N1CCCCC1` | none | none | none |
| `CC(=O)c1nn(-c2ccc(Cl)cc2)nc1Nc1cnc2ccccc2c1` | - | none | none |
| `Cc1cc(N2C[C@H]3CN(C(=O)CN(C)C)C[C@@]3(C(=O)O)C2)nc(N)n1` | none | none | none |
| `CNc1nc(N2CCCC2)nc(-n2cnc(SCCOc3ccccc3)n2)n1` | - | none | none |
| `N[C@H]1CN[C@H](C(=O)N[C@H]2CCc3ccccc32)C1` | none | none | none |
| `Cc1ccc(NCC(=O)NN=Cc2ccccc2[N+](=O)[O-])c(C)c1` | none | none | none |